According to paper PMC12670160, “A drug-repurposing screen of FDA- and EMA-approved drugs identifies two NF-κB inhibitors active against eumycetoma” (Journal of Antimicrobial Chemotherapy, 2025):
Where a name gives a salt, the structure may show the parent alone. Read-outs that look alike come from different tables or passages of the source. Screen size: about 5,300 compounds; about 130 (2.5%) showed an effect of 50% or more. Some of the results follow.

Tested on: M. mycetomatis strain mm55
Conditions: primary screen, metabolic activity vs growth control, 96 h, 2 µM, inhibitor

Row | Compound | % viability [%] | % viability (Madurella mycetomatis metabolic activity at 2µM (%)) [%]
1 | C=C1NCC[C@@H](C(=O)O)N1 [ONC0005375, ectoinezwitterion] | 125.4 | –
2 | CCC(=O)OCC(=O)C1(OC(=O)CC)[C@H](C)C[C@H]2C3[C@H](Cl)CC4=CC(=O)C=C[C@]4(C)[C@H]3[C@@H](O)C[C@@]21C (some centres unmarked) [ONC0002939, alclometasonedipropionate] | 82.49 | –
3 | COc1ccc(CCN(C)CCCN2CCc3cc(OC)c(OC)cc3CC2=O)cc1OC [ONC0000965, zatebradine hydrochloride] | 95.47 | –
4 | COc1ccc(C2(C#N)CCC(C(=O)O)CC2)cc1OC1CCCC1 (centres unmarked) [ONC0004902, cilomilast sb207499] | 116.1 | –
5 | Oc1ncnc2[nH]ncc12 [ONC0003233, allopurinol] | 75.66 | –
6 | C=C[C@]1(C)C[C@@H](OC(=O)CS[C@@H]2C[C@H]3CC[C@@H](C2)N3C)[C@]2(C)[C@H](C)CC[C@]3(CCC(=O)[C@H]32)[C@@H](C)[C@@H]1O [ONC0004457, retapamulin] | 126.7 | –
7 | COC(=O)c1cccnc1 [ONC0005437, methylnicotinate] | 108.3 | –
8 | CC(C)(C)NCC(O)c1cc(Cl)c(N)c(C(F)(F)F)c1 (centres unmarked) [ONC0002152, mabuterol] | 75.72 | –
9 | COc1ccccc1C(=O)Nc1cc2c(cc1N1CCCC1)n(C)c(=O)n2C [ONC0003127, pfi4] | 84.15 | –
10 | CC(=O)N(O)[C@@H]1c2cc(C#N)ccc2OC(C)(C)[C@H]1O [ONC0004430, y26763] | 123.9 | –
11 | Cc1cc(-c2cc(OC(=O)c3ccccc3)ccc2Cl)cc2nnc(Nc3ccc(OCCN4CCCC4)cc3)nc12 [ONC0002221, tg 100801] | 68.09 | –
12 | C=CC(=O)Nc1cccc(C)c1Nc1ncc2cc(-c3c(Cl)c(OC)cc(OC)c3Cl)ccc2n1 [ONC0002060, blu9931] | 73.1 | –
13 | C[C@]12CCC(=O)C=C1CC[C@@H]1[C@@H]2[C@@H](O)C[C@@]2(C)[C@H]1CC[C@]2(O)C(=O)CO [ONC0003280, hydrocortisone] | 64.75 | –
14 | CCOC(=O)C1=C[C@@H](OC(CC)CC)[C@H](NC(C)=O)[C@@H](N)C1 [ONC0003936, oseltamivir phosphate] | 70.29 | –
15 | COC[C@H](NC(=O)c1cnc(C)s1)C(=O)N[C@@H](COC)C(=O)N[C@@H](Cc1ccccc1)C(=O)C1(C)CO1 (some centres unmarked) [ONC0004389, oprozomib onx 0912] | 101.4 | –
16 | O=C(O)CC(O)C(=O)O (centres unmarked) [ONC0003790, malicacid] | 84.28 | –
17 | CCCCCCC[N+](CC)(CC)CCCCc1ccc(Cl)cc1 [ONC0002316, clofilium] | 77.33 | –
18 | C=C1C(=O)O[C@@H]2/C=C(\C)CC/C=C(\C)CC[C@@H]12 [ONC0001272, costunolide] | 67.43 | –
19 | O=C(O)[C@H](Cc1c[nH]c2ccccc12)N1C(=O)c2ccccc2C1=O [ONC0004497, rg108] | 69.63 | –
20 | O=C(Nc1ccccc1)c1cc([N+](=O)[O-])ccc1Cl [ONC0002683, gw9662] | 79.43 | –

Row | Compound | % viability [%] | % viability (Madurella mycetomatis metabolic activity at 2µM (%)) [%]
21 | CC1=C(CCC(=O)O)c2cc3[nH]c(cc4nc(cc5[nH]c(cc1n2)c(C)c5C(C)O)C(C)=C4C(C)O)c(C)c3CCC(=O)O (centres unmarked) [ONC0002122, hematoporphyrin] | 86.42 | –
22 | C[C@H](NC(=O)C(C)(C)Oc1ccc(C(F)(F)F)cn1)[C@@H](Cc1ccc(Cl)cc1)c1cccc(C#N)c1 [ONC0002066, taranabant] | 72.16 | –
23 | C[N+]1(CCCCC[N+]2(C)CCCC2)CCCC1 [ONC0002337, pentolinium] | 76.36 | –
24 | CCCc1cc(=O)[nH]c(=S)[nH]1 [ONC0000512, propylthiouracil] | 70.02 | –
25 | CCCCCCCC[N+](C)(C)Cc1ccccc1 [ONC0005462, benzyldimethyloctylammonium] | 89.48 | –
26 | C[C@@]1(c2nc3c(C(N)=O)cccc3[nH]2)CCCN1 [ONC0004676, abt888 veliparib] | 121 | –
27 | Cc1onc(-c2ccccc2)c1-c1ccc(S(N)(=O)=O)cc1 [ONC0004800, valdecoxib] | 106.4 | –
29 | O=C1c2cccnc2OC[C@@H]2CCCN12 [ONC0001148, org26576] | 83.51 | –
30 | Nc1nc(OCc2ccccc2)c2[nH]cnc2n1 [ONC0002984, o6benzylguanine] | 54.08 | –
31 | O[C@@H](COc1cccc2ncccc12)CN1CCN([C@@H]2c3ccccc3[C@@H]3[C@H](c4ccccc42)C3(F)F)CC1 [ONC0004604, ly335979 zosuquidar trihydrochloride] | 112.7 | –
32 | Cn1cnc(-c2cc3nccc(Oc4ccc(NC(=S)NC(=O)Cc5ccccc5)cc4F)c3s2)c1 [ONC0004601, mgcd265] | 74.95 | –
33 | O=c1[nH]c(=O)c2[nH]c(=O)[nH]c2[nH]1 [ONC0003522, uricacid] | 130.7 | –
34 | COCc1c(-c2ccc(NC(=O)Nc3cc(C(F)(F)F)ccc3F)c(F)c2)c2c(N)ncnn2c1CN1CCOCC1 [ONC0002053, actb1003] | 73.33 | –
35 | CCC(=O)N1CCN(c2ccc(-n3c(=O)ccc4cnc5ccc(-c6cnc7ccccc7c6)cc5c43)cc2C(F)(F)F)CC1 [ONC0004952, torin 1] | 53.42 | –
36 | CO/N=C(\C(=O)N[C@@H]1C(=O)N2C(C(=O)OCOC(=O)C(C)(C)C)=C(/C=C\c3scnc3C)CS[C@H]12)c1csc(N)n1 [ONC0004007, cefditorin pivoxil] | 66.26 | –
37 | c1ccc2c(Cc3c[nH]c4ccccc34)c[nH]c2c1 [ONC0003447, diindolylmethane] | 68.22 | –
38 | COc1ccc(OC)c2c(=S)c3ccccc3[nH]c12 [ONC0001744, nsc625987] | 58.92 | –
39 | Cc1sc(N)c(C(=O)c2cccc(C(F)(F)F)c2)c1C [ONC0001564, pd81723] | 126 | –
40 | COC(=O)Nc1nc2ccc(C(=O)c3ccccc3)cc2[nH]1 [ONC0000696, mebendazole] | 123.4 | –

An excerpt of these results, with each value named.
Cc1onc(-c2ccccc2)c1-c1ccc(S(N)(=O)=O)cc1 [ONC0004800, valdecoxib]
  % viability [%]: 106.4
O=C1c2cccnc2OC[C@@H]2CCCN12 [ONC0001148, org26576]
  % viability [%]: 83.51

Next structures follow:

Row | Compound | % viability [%] | % viability (Madurella mycetomatis metabolic activity at 2µM (%)) [%]
41 | CC(C)CCC[C@@H](C)[C@H]1CC[C@H]2[C@@H]3CCC4=CC(=NO)CC[C@]4(C)[C@H]3CC[C@]12C [ONC0001049, olesoxime] | 89.58 | –
42 | O=c1[nH]ccc2cc(OC3CCNCC3)ccc12 [ONC0001198, sar407899 hydrochloride] | 94.6 | –
43 | Cc1[nH]c2ccccc2c1CCNC(=O)c1cccs1 [ONC0005173, ck636] | 145.2 | –
44 | N=C(N)SCCc1ccc(OCc2ccc([N+](=O)[O-])cc2)cc1 [ONC0000862, kbr7943] | 96 | –
45 | Cn1c(NCCN(CCO)CCCc2ccc([N+](=O)[O-])cc2)cc(=O)n(C)c1=O [ONC0002304, nifekalant] | 75.97 | –
46 | N=C(N)c1ccc(OCCCCCOc2ccc(C(=N)N)cc2)cc1 [ONC0003359, pentamidine isethionate] | 71.33 | –
47 | O=C(OC[C@H]1O[C@@H](OC(=O)c2cc(O)c(O)c(OC(=O)c3cc(O)c(O)c(O)c3)c2)[C@H](OC(=O)c2cc(O)c(O)c(OC(=O)c3cc(O)c(O)c(O)c3)c2)[C@@H](OC(=O)c2cc(O)c(O)c(OC(=O)c3cc(O)c(O)c(O)c3)c2)[C@@H]1OC(=O)c1cc(O)c(O)c(OC(=O)c2cc(O)c(O)c(O)c2)c1)c1cc(O)c(O)c(OC(=O)c2cc(O)c(O)c(O)c2)c1 [ONC0002461, tannic acid] | 87.42 | –
48 | N[C@@H]1C[C@H]1c1ccccc1 (racemic) [ONC0000562, tranylcypromine sulfate] | 104.4 | –
49 | CC(C)Cc1ccc(C(C)C(=O)NCCO)cc1 (centres unmarked) [ONC0003533, mabuprofen] | 118.1 | –
50 | CCCCC(=O)O[C@H]1CC[C@H]2[C@@H]3CCc4cc(O)ccc4[C@H]3CC[C@]12C [ONC0000727, estradiol valerate] | 49.76 | –
51 | N=C(N)NCCNS(=O)(=O)c1cccc2cnccc12 [ONC0005629, ha1004hcl] | 74.09 | –
52 | O=C1OC2(c3cc(I)c(O)c(I)c3Oc3c2cc(I)c(O)c3I)c2c(Cl)c(Cl)c(Cl)c(Cl)c21 [ONC0002798, rose bengal sodium salt] | – | 83.07
53 | O=C(NC1CCNCC1)[C@@H]1CC[C@@H]2CN1C(=O)N2OS(=O)(=O)O [ONC0001257, relebactam] | 62.24 | –
54 | NC(N)=Nc1nc(CSCCN/C=N/S(=O)(=O)c2ccc(Br)cc2)cs1 [ONC0001324, ebrotidine] | 88.15 | –
55 | CCc1ccc(C2=CC(C)(C)Sc3ccc(C#Cc4ccc(C(=O)O)cc4)cc32)cc1 [ONC0001310, agn 194310] | 93.65 | –
56 | NC(=NCc1ccccc1)NC(=O)c1nc(Cl)c(N)nc1N [ONC0005575, benzamil hcl] | 53.65 | –
57 | Cc1ccc(Nc2c(F)cccc2Cl)c(CC(=O)O)c1 [ONC0004767, lumiracoxib cox189] | 100.2 | –
58 | O=C(O)c1cc(O)c2c(c1)C(=O)c1cccc(O)c1C2=O [ONC0004645, rheic acid] | 83.66 | –
59 | CN1CCc2c(c3ccccc3n2Cc2ccccc2)C1 [ONC0002361, mebhydrolin] | 82.22 | –
